In paper PMC11993990:
No constants are given. Whether binding was seen depends on the method and setting. In cells and extracts the contact can be indirect. Here binding means that the protein was enriched with, or labelled near, the bait; the list need not be complete. Tags and fused reporters may be left off the sequences shown.

Chains of the proteins cited; added tags and fusions are not shown. Residues count along the entry.
UniProt P26231: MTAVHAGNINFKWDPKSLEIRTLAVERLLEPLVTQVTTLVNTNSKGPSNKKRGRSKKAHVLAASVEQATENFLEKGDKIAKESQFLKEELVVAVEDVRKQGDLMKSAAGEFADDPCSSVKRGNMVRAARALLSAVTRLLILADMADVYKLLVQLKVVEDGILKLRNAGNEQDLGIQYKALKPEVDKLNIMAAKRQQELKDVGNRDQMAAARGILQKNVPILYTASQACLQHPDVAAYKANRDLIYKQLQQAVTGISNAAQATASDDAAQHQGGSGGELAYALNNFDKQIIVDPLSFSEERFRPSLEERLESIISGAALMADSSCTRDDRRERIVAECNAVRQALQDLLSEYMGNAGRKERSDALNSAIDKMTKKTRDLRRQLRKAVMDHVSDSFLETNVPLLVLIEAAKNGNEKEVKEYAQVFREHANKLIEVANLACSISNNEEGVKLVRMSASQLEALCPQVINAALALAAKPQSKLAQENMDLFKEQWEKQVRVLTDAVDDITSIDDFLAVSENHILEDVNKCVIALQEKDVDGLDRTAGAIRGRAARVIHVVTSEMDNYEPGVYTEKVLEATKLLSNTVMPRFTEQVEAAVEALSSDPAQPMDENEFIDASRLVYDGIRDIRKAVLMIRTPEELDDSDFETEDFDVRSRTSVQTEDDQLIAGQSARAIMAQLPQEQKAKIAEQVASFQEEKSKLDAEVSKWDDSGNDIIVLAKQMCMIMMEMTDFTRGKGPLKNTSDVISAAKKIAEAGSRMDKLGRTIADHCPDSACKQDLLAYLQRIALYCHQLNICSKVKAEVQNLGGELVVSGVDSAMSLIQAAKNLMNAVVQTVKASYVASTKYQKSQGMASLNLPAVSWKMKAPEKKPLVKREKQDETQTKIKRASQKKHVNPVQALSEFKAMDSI
UniProt Q02248: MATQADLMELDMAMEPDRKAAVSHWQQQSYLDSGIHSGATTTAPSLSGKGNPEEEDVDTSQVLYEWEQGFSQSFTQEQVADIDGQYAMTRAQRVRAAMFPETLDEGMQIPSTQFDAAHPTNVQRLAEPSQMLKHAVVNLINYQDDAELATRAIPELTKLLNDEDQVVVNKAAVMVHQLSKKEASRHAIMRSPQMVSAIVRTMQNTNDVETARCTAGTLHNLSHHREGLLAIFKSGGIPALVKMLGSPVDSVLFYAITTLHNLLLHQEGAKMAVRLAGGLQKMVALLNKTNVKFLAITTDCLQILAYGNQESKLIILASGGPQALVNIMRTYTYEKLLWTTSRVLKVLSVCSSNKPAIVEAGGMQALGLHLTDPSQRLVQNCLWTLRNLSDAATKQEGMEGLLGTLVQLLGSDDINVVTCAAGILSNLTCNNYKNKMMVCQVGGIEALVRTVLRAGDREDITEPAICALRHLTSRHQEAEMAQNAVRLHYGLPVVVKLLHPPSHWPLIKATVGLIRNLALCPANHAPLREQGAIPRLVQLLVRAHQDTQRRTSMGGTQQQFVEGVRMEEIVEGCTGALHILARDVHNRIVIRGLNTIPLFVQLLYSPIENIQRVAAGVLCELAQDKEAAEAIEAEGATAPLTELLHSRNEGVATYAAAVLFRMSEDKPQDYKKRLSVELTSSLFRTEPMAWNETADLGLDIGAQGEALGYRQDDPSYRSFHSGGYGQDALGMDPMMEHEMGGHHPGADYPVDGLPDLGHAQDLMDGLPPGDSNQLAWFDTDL
UniProt Q9Z127: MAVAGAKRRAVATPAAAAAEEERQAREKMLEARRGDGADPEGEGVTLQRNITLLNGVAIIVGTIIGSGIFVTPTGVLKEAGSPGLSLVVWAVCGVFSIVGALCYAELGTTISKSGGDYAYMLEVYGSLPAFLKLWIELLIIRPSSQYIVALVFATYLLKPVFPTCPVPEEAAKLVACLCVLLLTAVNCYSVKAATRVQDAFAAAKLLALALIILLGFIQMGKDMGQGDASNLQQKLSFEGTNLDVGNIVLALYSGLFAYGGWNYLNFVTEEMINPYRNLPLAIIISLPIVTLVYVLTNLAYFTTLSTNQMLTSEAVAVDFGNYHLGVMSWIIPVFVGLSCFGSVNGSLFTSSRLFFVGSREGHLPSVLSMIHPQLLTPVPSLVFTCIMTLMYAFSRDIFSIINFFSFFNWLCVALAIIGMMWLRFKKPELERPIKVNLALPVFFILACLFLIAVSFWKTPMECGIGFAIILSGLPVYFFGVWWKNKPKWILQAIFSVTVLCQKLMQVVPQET
UniProt P10852: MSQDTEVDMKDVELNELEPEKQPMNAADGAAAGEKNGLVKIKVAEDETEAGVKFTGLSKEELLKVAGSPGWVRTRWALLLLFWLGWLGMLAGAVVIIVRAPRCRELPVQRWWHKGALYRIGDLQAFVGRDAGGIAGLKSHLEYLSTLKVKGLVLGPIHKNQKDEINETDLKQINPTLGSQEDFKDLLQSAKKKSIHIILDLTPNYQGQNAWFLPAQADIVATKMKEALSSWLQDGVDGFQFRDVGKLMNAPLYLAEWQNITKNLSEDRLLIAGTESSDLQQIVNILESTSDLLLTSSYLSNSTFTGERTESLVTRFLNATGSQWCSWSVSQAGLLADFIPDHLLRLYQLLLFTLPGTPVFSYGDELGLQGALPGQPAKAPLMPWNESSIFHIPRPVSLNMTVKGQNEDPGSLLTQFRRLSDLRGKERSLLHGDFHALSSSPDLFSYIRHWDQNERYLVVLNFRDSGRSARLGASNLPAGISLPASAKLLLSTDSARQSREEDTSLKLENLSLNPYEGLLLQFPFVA
UniProt P09055, residues 21-798: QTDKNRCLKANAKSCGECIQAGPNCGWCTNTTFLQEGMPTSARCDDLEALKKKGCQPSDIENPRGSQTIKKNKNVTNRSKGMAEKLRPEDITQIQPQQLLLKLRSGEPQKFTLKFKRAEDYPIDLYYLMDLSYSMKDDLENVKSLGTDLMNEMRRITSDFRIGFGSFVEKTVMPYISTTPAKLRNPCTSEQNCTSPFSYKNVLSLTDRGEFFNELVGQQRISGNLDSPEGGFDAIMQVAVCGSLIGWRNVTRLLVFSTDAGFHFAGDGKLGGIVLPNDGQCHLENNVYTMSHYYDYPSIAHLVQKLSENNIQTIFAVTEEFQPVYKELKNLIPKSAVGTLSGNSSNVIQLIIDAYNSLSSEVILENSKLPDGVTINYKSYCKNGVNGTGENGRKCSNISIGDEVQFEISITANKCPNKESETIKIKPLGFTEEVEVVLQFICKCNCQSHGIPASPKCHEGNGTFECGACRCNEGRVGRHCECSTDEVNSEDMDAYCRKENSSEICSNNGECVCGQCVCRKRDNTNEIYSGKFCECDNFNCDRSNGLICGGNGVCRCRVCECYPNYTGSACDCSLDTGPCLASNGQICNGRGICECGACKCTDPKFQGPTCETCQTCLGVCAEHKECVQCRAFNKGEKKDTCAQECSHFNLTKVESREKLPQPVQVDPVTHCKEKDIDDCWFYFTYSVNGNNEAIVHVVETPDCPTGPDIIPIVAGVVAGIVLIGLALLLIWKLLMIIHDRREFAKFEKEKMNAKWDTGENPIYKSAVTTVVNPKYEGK

T1: human wild-type R-RAS2 tagged at the N-terminus with a hemagglutinin (Hag) epitope, from the Rosa26-RRAS2fl/fl knock-in (human) (UniProt P62070)
T1 sequence: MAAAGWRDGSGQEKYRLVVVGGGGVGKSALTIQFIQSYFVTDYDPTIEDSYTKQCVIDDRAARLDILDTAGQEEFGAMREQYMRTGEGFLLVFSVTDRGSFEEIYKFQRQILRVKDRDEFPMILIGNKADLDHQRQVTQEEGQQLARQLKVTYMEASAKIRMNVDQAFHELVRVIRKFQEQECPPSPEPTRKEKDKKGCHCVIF

B1: Ptk7, mouse (receptor, UniProt Q8BKG3 23-1062)
chain: AIVFIKEPSSQDALQGRRALLRCEVEAPDPVHVYWLLNGVPVQDTERRFAQGSSLSFAAVDRLQDSGAFQCVARDNVTGEEVRSTNASFNIKWIEAGPVVLKHPASEAEIQPQTQVTLRCHIDGHPRPTYQWFRDGTPLSDDQSTHTVSSRERNLTLRPASPEHSGLYSCCAHNAFGQACSSQNFTLSVADESFARVVLAPQDVVVARNEEAMFHCQFSAQPPPSLQWVFEDETPITNRSRPPHLRRAVVFANGSLLLTQVRPRNAGVYRCIGQGQRGPPIVLEATLHLAEIEDMLPFEPRVFIAGDEERVTCPAPQGLPTPSVWWEHAGVPLPAHGRVHQKGLELVFVTIAESDTGVYTCHASNLAGQRRQDVNITVATVPTWLRKPQDSQLEEGKPGYLHCLTQATPKPTVIWYRNQMLISEDSRFEVSKNGTLRINSVEVYDGTLYRCVSSTPAGSIEAQARVQVLEKLKFTPPPQPQQCMEFDKEATVPCSATGREKPTVKWVRADGSSLPEWVTDNAGTLHFARVTRDDAGNYTCIASNEPQGQIRAHVQLTVAVFITFKVEPERTTVYQGHTALLRCEAQGDPKPLIQWKGKDRILDPTKLGPRMHIFQNGSLVIHDVAPEDSGSYTCIAGNSCNIRHTEAPLLVVDKPVMEDSEGPGSPPPYKMIQTIGLSVGAAVAYIIAVLGLMFYCKKRCKAKRLQKQPEGEEPEMECLNGGPLQNGQPSAEIQEEVALTSLGSGPPATNKRHSAGDRMHFPRASLQPITTLGKSEFGEVFLAKAQGVEEGATETLVLVKSLQSRDEQQQLDFRREVEMFGKLNHANVVRLLGLCREAEPHYMVLEYVDLGDLKQFLRISKNKDEKLKSQPLSTKQKVALCSQVALGMEHLSNNRFVHKDLAARNCLISAQRQVKVSALGLSKDVYNSEYYHFRQAWVPLRWMSPEAVLEGDFSTKSDVWAFGVLMWEVFTHGEMPHGGQADDEVLADLQAGKARLPQPEGCPSKLYRLMQRCWAPNPKDRPSFSEIASTLGDSPADSKQ
B2: Epcam, mouse (protein, UniProt Q99JW5 24-315)
chain: QRDCVCDNYKLATSCSLNEYGECQCTSYGTQNTVICSKLASKCLAMKAEMTHSKSGRRIKPEGAIQNNDGLYDPDCDEQGLFKAKQCNGTATCWCVNTAGVRRTDKDTEITCSERVRTYWIIIELKHKERESPYDHQSLQTALQEAFTSRYKLNQKFIKNIMYENNVITIDLMQNSSQKTQDDVDIADVAYYFEKDVKGESLFHSSKSMDLRVNGEPLDLDPGQTLIYYVDEKAPEFSMQGLTAGIIAVIVVVSLAVIAGIVVLVISTRKKSAKYEKAEIKEMGEIHRELNA
B3: GLUT1 (Slc2a1), mouse (protein, UniProt P17809 1-492)
chain: MDPSSKKVTGRLMLAVGGAVLGSLQFGYNTGVINAPQKVIEEFYNQTWNHRYGEPIPSTTLTTLWSLSVAIFSVGGMIGSFSVGLFVNRFGRRNSMLMMNLLAFVAAVLMGFSKLGKSFEMLILGRFIIGVYCGLTTGFVPMYVGEVSPTALRGALGTLHQLGIVVGILIAQVFGLDSIMGNADLWPLLLSVIFIPALLQCILLPFCPESPRFLLINRNEENRAKSVLKKLRGTADVTRDLQEMKEEGRQMMREKKVTILELFRSPAYRQPILIAVVLQLSQQLSGINAVFYYSTSIFEKAGVQQPVYATIGSGIVNTAFTVVSLFVVERAGRRTLHLIGLAGMAGCAVLMTIALALLERLPWMSYLSIVAIFGFVAFFEVGPGPIPWFIVAELFSQGPRPAAIAVAGFSNWTSNFIVGMCFQYVEQLCGPYVFIIFTVLLVLFFIFTYFKVPETKGRTFDEIASGFRQGGASQSDKTPEELFHPLGADSQV

These molecules were tested against T1, human wild-type R-RAS2 tagged at the N-terminus with a hemagglutinin (Hag) epitope, from the Rosa26-RRAS2fl/fl knock-in (human) (assay: affinity purification with mass spectrometry; cells of a freshly isolated Rosa26-RRAS2fl/fl x Wap-Cre breast tumor surface-biotinylated, lysed in 0.5% Brij96; co-IP with anti-Hag (12CA5) or isotype control, then Streptavidin Sepharose; in-gel trypsin digest, Orbitrap).
For “α-catenin (Ctnna1), mouse (from UniProt P26231 1-906)”, the binding was “binds”.
For “β-catenin (Ctnnb1), mouse (from UniProt Q02248 1-781)”, the binding was “binds”.
In the case of “LAT1 (Slc7a5), mouse (from UniProt Q9Z127 1-512)”, the binding is reported as “binds”.
With “CD98 heavy chain (Slc3a2), mouse (from UniProt P10852 1-526)” the binding was “binds”.
With “integrin-β1 (itgb1), mouse (from UniProt P09055 21-798) (receptor)” the binding was “binds”.

Target: T1, human wild-type R-RAS2 tagged at the N-terminus with a hemagglutinin (Hag) epitope, from the Rosa26-RRAS2fl/fl knock-in (human)
Test: as above
Remark: another data set of the same source
B1 was tested, and the binding was “binds”.
With B2 the binding was “binds”.
In the case of B3, the binding is reported as “binds”.
